Experimental findings from PMC6747245 are described below.

These are yes or no findings as the source states them, for the method shown. Binding seen in cells or lysates may run through a third protein. A result given as binding can be weak or reduced; the word gives no strength. Sequences can lack the tags named with a protein.

B1: RGS1^14–250-GFP (domain or fragment, UniProt Q8H1F2 14-250)
chain: DYVAVAISVICFFVLLSRSVLPCLIHKAPRTNSSSFWIPVIQVISSFNLLFSIMMSVNLLRFRTKHWWRYCYLWAVWIEGPLGFGLLMSCRITQAFQLYFIFVKKRLPPVKSYIFLPLVLLPWIFGAAIIHATKPLNDKCHMGLQWTFPVAGLHALYVLALIAFTRAVRHVEFRFDELRDLWKGILVSATSIVIWVTAFVLNEIHEEISWLQVASRFVLLVTGGILVVVFFSISSNQ
B2: RGS1-GFP (protein, UniProt Q8H1F2 1-459)
chain: MASGCALHGGCPSDYVAVAISVICFFVLLSRSVLPCLIHKAPRTNSSSFWIPVIQVISSFNLLFSIMMSVNLLRFRTKHWWRYCYLWAVWIEGPLGFGLLMSCRITQAFQLYFIFVKKRLPPVKSYIFLPLVLLPWIFGAAIIHATKPLNDKCHMGLQWTFPVAGLHALYVLALIAFTRAVRHVEFRFDELRDLWKGILVSATSIVIWVTAFVLNEIHEEISWLQVASRFVLLVTGGILVVVFFSISSNQPLLSQISLKKRQNFEFQRMGQALGIPDSGLLFRKEEFRPVDPNEPLDKLLLNKRFRHSFMEFADSCYAGETLHFFEEVYEHGKIPEDDSIRRIYMARHIMEKFIVAGAEMELNLSHKTRQEILTTQDLTHTDLFKNALNEVMQLIKMNLVRDYWSSIYFIKFKEEESCHEAMHKEGYSFSSPRLSSVQGSDDPFYQEHMSKSSRCSSPG
B3: RGS1^1–413-GFP (domain or fragment, UniProt Q8H1F2 1-413)
chain: MASGCALHGGCPSDYVAVAISVICFFVLLSRSVLPCLIHKAPRTNSSSFWIPVIQVISSFNLLFSIMMSVNLLRFRTKHWWRYCYLWAVWIEGPLGFGLLMSCRITQAFQLYFIFVKKRLPPVKSYIFLPLVLLPWIFGAAIIHATKPLNDKCHMGLQWTFPVAGLHALYVLALIAFTRAVRHVEFRFDELRDLWKGILVSATSIVIWVTAFVLNEIHEEISWLQVASRFVLLVTGGILVVVFFSISSNQPLLSQISLKKRQNFEFQRMGQALGIPDSGLLFRKEEFRPVDPNEPLDKLLLNKRFRHSFMEFADSCYAGETLHFFEEVYEHGKIPEDDSIRRIYMARHIMEKFIVAGAEMELNLSHKTRQEILTTQDLTHTDLFKNALNEVMQLIKMNLVRDYWSSIYFIKFK
B4: RGS1^1–283-GFP (domain or fragment, UniProt Q8H1F2 1-283)
chain: MASGCALHGGCPSDYVAVAISVICFFVLLSRSVLPCLIHKAPRTNSSSFWIPVIQVISSFNLLFSIMMSVNLLRFRTKHWWRYCYLWAVWIEGPLGFGLLMSCRITQAFQLYFIFVKKRLPPVKSYIFLPLVLLPWIFGAAIIHATKPLNDKCHMGLQWTFPVAGLHALYVLALIAFTRAVRHVEFRFDELRDLWKGILVSATSIVIWVTAFVLNEIHEEISWLQVASRFVLLVTGGILVVVFFSISSNQPLLSQISLKKRQNFEFQRMGQALGIPDSGLLFR
B5: RGS1^1–283,414–459-GFP (domain or fragment, UniProt Q8H1F2)
chain: MASGCALHGGCPSDYVAVAISVICFFVLLSRSVLPCLIHKAPRTNSSSFWIPVIQVISSFNLLFSIMMSVNLLRFRTKHWWRYCYLWAVWIEGPLGFGLLMSCRITQAFQLYFIFVKKRLPPVKSYIFLPLVLLPWIFGAAIIHATKPLNDKCHMGLQWTFPVAGLHALYVLALIAFTRAVRHVEFRFDELRDLWKGILVSATSIVIWVTAFVLNEIHEEISWLQVASRFVLLVTGGILVVVFFSISSNQPLLSQISLKKRQNFEFQRMGQALGIPDSGLLFREEESCHEAMHKEGYSFSSPRLSSVQGSDDPFYQEHMSKSSRCSSPG
B6: RGS1^1–250-GFP (domain or fragment, UniProt Q8H1F2 1-250)
chain: MASGCALHGGCPSDYVAVAISVICFFVLLSRSVLPCLIHKAPRTNSSSFWIPVIQVISSFNLLFSIMMSVNLLRFRTKHWWRYCYLWAVWIEGPLGFGLLMSCRITQAFQLYFIFVKKRLPPVKSYIFLPLVLLPWIFGAAIIHATKPLNDKCHMGLQWTFPVAGLHALYVLALIAFTRAVRHVEFRFDELRDLWKGILVSATSIVIWVTAFVLNEIHEEISWLQVASRFVLLVTGGILVVVFFSISSNQ
B7: AtRGS1-cYFP (protein, UniProt Q8H1F2 1-459)
chain: MASGCALHGGCPSDYVAVAISVICFFVLLSRSVLPCLIHKAPRTNSSSFWIPVIQVISSFNLLFSIMMSVNLLRFRTKHWWRYCYLWAVWIEGPLGFGLLMSCRITQAFQLYFIFVKKRLPPVKSYIFLPLVLLPWIFGAAIIHATKPLNDKCHMGLQWTFPVAGLHALYVLALIAFTRAVRHVEFRFDELRDLWKGILVSATSIVIWVTAFVLNEIHEEISWLQVASRFVLLVTGGILVVVFFSISSNQPLLSQISLKKRQNFEFQRMGQALGIPDSGLLFRKEEFRPVDPNEPLDKLLLNKRFRHSFMEFADSCYAGETLHFFEEVYEHGKIPEDDSIRRIYMARHIMEKFIVAGAEMELNLSHKTRQEILTTQDLTHTDLFKNALNEVMQLIKMNLVRDYWSSIYFIKFKEEESCHEAMHKEGYSFSSPRLSSVQGSDDPFYQEHMSKSSRCSSPG

The target in the first experiment is His-ATG8a (Arabidopsis thaliana). In words: pull-down; purified His-ATG8a on Ni-NTA agarose incubated with N. benthamiana leaf extracts for 2 h at 4 °C; 100 mM Tris-HCl pH 7.5, 150 mM NaCl, 1 mM EDTA, 0.5% Nonidet P-40; beads washed thrice; Western blot with GFP antibody; only the target purified.
For B1, the binding entry is “binds”.
Take B2: the binding result is on record as “binds”.
Consider B3, for which the binding entry is “binds”.
Same read-out and setting: the result for B4 reads “binds”.
As for B5, the binding result is listed as “binds”.
Turning to B6, the binding entry is “binds”.

Another experiment addresses nYFP-ATG8a (Arabidopsis thaliana). The experiment is described as follows: split reporter; split nYFP and cYFP pairs co-expressed with p19 and Mt-rk in 4-5-week-old Nicotiana benthamiana leaves by Agrobacterium infiltration; confocal images 3 days after inoculation.
For B7, the binding result is given as “binds”.
